# Measured values taken from the supplement of paper PMC10727501.
# This is one part of the list. Single values are uncertain here, since repeats match poorly.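 Free-swimming zebrafish larvae were assessed for O-bend response probability to dark flashes (naive: first five; training: remaining flashes across four 60-flash blocks; test: later 60-flash block) and for OMR turning toward alternating leftward/rightward LED motion. Six treated larvae were compared against sixty 0.1% DMSO controls; hits required |SSMD|≥2.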
# What was measured:
# Details in all cases: 10 µM; pre-incubation: 30-90 min
# [1] = test system: Danio rerio larvae (5 dpf, TLF); assay: OMR-Perf (SSMD vs DMSO vehicle); higher = higher than vehicle (e.g. higher dark-flash O-bend response probability, or better optomotor performance)
# [2] = test system: Danio rerio larvae (5 dpf, TLF); assay: Prob-Test (SSMD vs DMSO vehicle); higher = higher than vehicle (e.g. higher dark-flash O-bend response probability, or better optomotor performance)
# [3] = test system: Danio rerio larvae (5 dpf, TLF); assay: Prob-Naive (SSMD vs DMSO vehicle); higher = higher than vehicle (e.g. higher dark-flash O-bend response probability, or better optomotor performance)
# [4] = test system: Danio rerio larvae (5 dpf, TLF); assay: Prob-Train (SSMD vs DMSO vehicle); higher = higher than vehicle (e.g. higher dark-flash O-bend response probability, or better optomotor performance)
SMILES,OMR-Perf [1],Prob-Test [2],Prob-Naive [3],Prob-Train [4]
CCCCN1CCCCC1C(=O)Nc1c(C)cccc1C.Cl (stereo not drawn) [Bupivacaine HCl],0.0799,-0.211,0.028,-0.41
O=c1ncn2nc(Sc3ccc(F)cc3F)ccc2c1-c1c(Cl)cccc1Cl,-0.312,-0.255,0.173,-0.44
CC(C)Cc1ccc(C(C)C(=O)O)cc1.NCCCC[C@H](N)C(=O)O (stereo not drawn) [Ibuprofen Lysine (NeoProfen)],-0.0531,-0.835,-0.0588,-0.823
CCOC(=O)[C@H](CCc1ccccc1)N[C@H]1CS[C@H](c2cccs2)CN(CC(=O)O)C1=O.Cl [Temocapril HCl],-0.206,-0.158,0.338,-0.139
COC(=O)[C@H]1[C@H]2C[C@@H]3c4[nH]c5cc(OC)ccc5c4CCN3C[C@H]2C[C@@H](OC(=O)c2cc(OC)c(OC)c(OC)c2)[C@@H]1OC [Reserpine],-0.934,-0.219,-0.134,-1.02
O=C(Nc1cccc(C(F)(F)F)c1)Nc1cc(S(=O)(=O)NC2CC2)ccc1-c1ccsc1,0.278,-0.191,-0.357,-0.402
O=C(Nc1cccc(Cl)c1)c1ccccn1,-0.5,0.217,-0.541,-0.373
O=C([O-])[C@H](O)[C@@H](O)[C@H](O)[C@H](O)CO.[Na+] [Sodium Gluconate],-0.221,-0.0996,0.0912,0.217
CC(O)[C@H]1C(=O)N2C(C(=O)[O-])=C(SC3Cn4ncc[n+]4C3)[C@H](C)[C@H]12 (stereo partly drawn) [Biapenem],0.117,-0.0321,-0.0588,-0.124
COc1c(N2CCNC(C)C2)c(F)cc2c(=O)c(C(=O)O)cn(C3CC3)c12 (stereo not drawn) [Gatifloxacin],-0.536,0.207,-0.134,0.202
Nc1ncnc2c1ncn2[C@H]1O[C@H](CO)[C@@H](O)[C@H]1O [Adenosine],-0.403,-0.173,0.454,0.0525
CNC[C@H](O)c1ccc(O)c(O)c1 [L-Adrenaline],-0.134,0.0493,-0.296,-0.0838
CCOc1cc(N)c(Cl)cc1C(=O)NCC1CN(Cc2ccc(F)cc2)CCO1.O=C(O)CC(O)(CC(=O)O)C(=O)O (stereo not drawn) [Mosapride Citrate],-1.03,-1.36,0.153,-0.929
C[C@@H]1COC(Nc2ccc3ncnc(Nc4ccc(OCc5nccs5)c(Cl)c4)c3c2)=N1 [Varlitinib],0.227,-0.421,-0.289,-0.633
C1N2CN3CN1CN(C2)C3 [Methenamine],-0.394,-0.565,0,-0.3
Cc1cccc(C)c1OCC(=O)N[C@@H](Cc1ccccc1)[C@@H](O)C[C@H](Cc1ccccc1)NC(=O)[C@H](C(C)C)N1CCCNC1=O [Lopinavir],0.0868,0.147,0.449,-0.613
COCCCN1CCC(NC(=O)c2cc(Cl)c(N)c3c2OCC3)CC1 [Prucalopride],-0.163,-0.0711,0.6,0.196
Cc1ccccc1C(C(=O)NC1CCCCC1)N(C(=O)Cn1ccnc1C)c1cccc(F)c1 (stereo not drawn),-0.288,0.597,0.118,-0.102
Cc1cc(Nc2ncc(Cl)c(Nc3ccccc3S(=O)(=O)C(C)C)n2)c(OC(C)C)cc1C1CCNCC1,-0.411,-0.891,-0.496,-0.824
COc1ccc(Cl)cc1C(=O)NCCc1ccc(S(=O)(=O)NC(=O)NC2CCCCC2)cc1 [Glyburide],-0.479,-0.147,-0.0545,-0.219
CC(=O)N1CCN(CCOc2ccc(C3CCN(C4=Nn5c(nnc5C(F)(F)F)CC4)CC3)cc2)CC1,-0.512,-0.666,-0.263,-0.223
CC1CCCC(C)N1NC(=O)c1ccc(Cl)c(S(N)(=O)=O)c1 (stereo not drawn) [Clopamide],-0.927,0.222,0.0239,0.331
CN1CCN(c2c(F)cc3c(=O)c(C(=O)O)cn(CCF)c3c2F)CC1 [Fleroxacin (Quinodis)],-0.233,-0.548,-0.464,-0.158
Cl.N#Cc1ccc2[nH]cc(CCCCN3CCN(c4ccc5oc(C(N)=O)cc5c4)CC3)c2c1 [Vilazodone HCl],-0.399,-1.51,-1.6,-2.9
O=C(NOCC1CC1)c1ccc(F)c(F)c1Nc1ccc(I)cc1Cl,-0.925,-1.91,-0.71,-2.96
CCOc1ccc2ccccc2c1C(=O)N[C@@H]1C(=O)N2[C@@H]1SC(C)(C)[C@H]2C(=O)[O][Na].O [Nafcillin Sodium],-0.102,-0.206,-0.171,0.465
O=C(Nc1ccc(-c2ccnc(Nc3ccc(N4CCOCC4)cc3)n2)cc1)[C@@H]1CCCN1,-0.125,-0.295,0.145,0.0437

# Shown bar-delimited: part of the list above
SMILES | OMR-Perf [1] | Prob-Test [2] | Prob-Naive [3] | Prob-Train [4]
O=C(Nc1cccc(C(F)(F)F)c1)Nc1cc(S(=O)(=O)NC2CC2)ccc1-c1ccsc1 | 0.278 | -0.191 | -0.357 | -0.402
CC1CCCC(C)N1NC(=O)c1ccc(Cl)c(S(N)(=O)=O)c1 (stereo not drawn) [Clopamide] | -0.927 | 0.222 | 0.0239 | 0.331
Cl.N#Cc1ccc2[nH]cc(CCCCN3CCN(c4ccc5oc(C(N)=O)cc5c4)CC3)c2c1 [Vilazodone HCl] | -0.399 | -1.51 | -1.6 | -2.9
CCOc1ccc2ccccc2c1C(=O)N[C@@H]1C(=O)N2[C@@H]1SC(C)(C)[C@H]2C(=O)[O][Na].O [Nafcillin Sodium] | -0.102 | -0.206 | -0.171 | 0.465
O=C(Nc1ccc(-c2ccnc(Nc3ccc(N4CCOCC4)cc3)n2)cc1)[C@@H]1CCCN1 | -0.125 | -0.295 | 0.145 | 0.0437
